Test results published in patent US20200299706A1 (COLD SPRING HARBOR LABORATORY, published 2020).
Results are given in words; binding and its absence hold for the method and conditions named. Some binding calls cover weakened binding; strength is not graded here.

Experiments:
Settings in all cases: remark: other sources report otherwise
[1] = molecular target: T1, EJ2 (Enhancer-of-Jointless-2, Solyc03g114840) SEP4-homolog MADS-box protein (tomato (Solanum lycopersicum)), Q7Y040; experiment: yeast two-hybrid, FIG. 5C
T1 chain: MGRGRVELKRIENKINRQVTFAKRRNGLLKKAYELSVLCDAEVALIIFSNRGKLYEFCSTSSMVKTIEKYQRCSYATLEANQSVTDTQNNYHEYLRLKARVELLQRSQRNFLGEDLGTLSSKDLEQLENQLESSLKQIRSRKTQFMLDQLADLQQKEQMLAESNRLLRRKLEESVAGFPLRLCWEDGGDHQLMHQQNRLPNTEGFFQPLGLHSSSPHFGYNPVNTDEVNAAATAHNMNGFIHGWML

[2] = molecular target: T1, EJ2 (Enhancer-of-Jointless-2, …); experiment: yeast two-hybrid, FIG. 10B
[3] = molecular target: T1, EJ2 (Enhancer-of-Jointless-2, …); experiment: yeast two-hybrid (Matchmaker Gold; growth on -L-T-H medium)

Measured: binding

B1: J2 (Jointless-2, Solyc12g038510) SEP4-homolog MADS-box protein (other)
chain: MGRGRVELKRIENKINRQVTFAKRRNGLLKKAYELSILCDAEVALIIFSSRGKLYEFSSASSMMTTLEKYQQCSYASLDPMLPVSDTQMNYNEYVRLKARVELLQRSQRHILGEDLGTLNSKELEQLEHQLDASLKKVRSKKTQSMLDQLADLQEKEQMLEEANKQLKNKLEESAARIPLGLSWGNNGGQTMEYNRLPPQTTAQPFFQPLRLNSSSPQFGYNPNMGANDHEVNAATTAHNINGFIPGWML
binds: [1] | [2] | [3]
